Percent effect data for 33 compounds are collected here from the supplement of paper PMC8256030.

Several values for one entry are separate records, joined by “and”; a condition that tells them apart may be missing. Identical values can stand only once. Counter-ions that a name gives are not always drawn. The list shows a part of the results. Repeats in this data set agree poorly, so a single value says little.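 HEK293T cells were given each compound shortly before transfection with a reporter in which red mCherry is followed by the SARS-CoV-2 frameshift element and then GFP in the −1 frame, so GFP appears only after frameshifting.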

The subject of this assay is SARS-CoV-2 -1 PRF reporter mCherry-FSE-GFP(-1). The experiment in a line: percent effect, decrease of GFP/mCherry ratio (-1 PRF reporter) relative to controls; higher = stronger frameshift inhibition. To be noted: 10 µM; 24 h; HEK293T.
As for `O=C1C2CC3CC1CC(O)(C3)C2` [idramantone], the percent effect turned out to be 0.652%. As for `CCCCc1ncc(/C=C(\Cc2cccs2)C(=O)O)n1Cc1ccc(C(=O)O)cc1` [eprosartan], the figure is -0.0909% and 3.04%. As for `CO[C@H]1/C=C/O[C@@]2(C)Oc3c(C)c(O)c4c(O)c(c5c(nc6cc(C)ccn65)c4c3C2=O)NC(=O)/C(C)=C\C=C\[C@H](C)[C@H](O)[C@@H](C)[C@@H](O)[C@@H](C)[C@H](OC(C)=O)[C@@H]1C`, the figure is -3.8%; as for `C/C=C/C1=C(C(=O)O)N2C(=O)[C@@H](NC(=O)[C@H](N)c3ccc(O)cc3)[C@H]2SC1`, -7.04%.

On to `OC(CCCN1CCc2c(c3cc(F)ccc3n2-c2ccc(F)cc2)C1)c1ccc(F)cc1` (stereo not drawn) [flutroline], for which the percent effect is -4.8%. As for `NC[C@H]1O[C@H](O[C@H]2[C@H](O)[C@@H](O[C@H]3O[C@H](CO)[C@@H](O)[C@H](N)[C@H]3O)[C@H](N)C[C@@H]2N)[C@H](O)[C@@H](O)[C@@H]1O`, the figure is -1.69%. As for `CC(=O)CC(c1ccc([N+](=O)[O-])cc1)c1c(O)c2ccccc2oc1=O` (stereo not drawn), the figure is -16.7%; as for `C=C1C[C@H]2[C@@H]3C=C(C)C4=CC(=O)CC[C@]4(C)[C@H]3CC[C@]2(C)[C@@]1(OC(C)=O)C(C)=O` [Melengestrol Acetate], 4.39%; as for `CCn1cc(C(=O)O)c(=O)c2cc(F)c(N3CCN(C)CC3)cc21` [Pefloxacine mesylate dihydrate], -1.37%. The result for `CN/C(=N\CCSCc1nc[nH]c1C)NC#N` [Cimetidine] reads -4.39% and 2.25%; that for `NCCC(O)(P(=O)(O)O)P(=O)(O)O` [pamidronic acid], -1.61%; that for `CN(C)C(=O)C(CC[N@+]1([O-])CC[C@@](O)(c2ccc(Cl)cc2)CC1)(c1ccccc1)c1ccccc1` [loperamide oxide], -4.93%. On to `Clc1ccc(Cn2c(CN3CCCC3)nc3ccccc32)cc1` [clemizole], for which the percent effect is -6.97%.

With `CN1N=C(C(N)=O)CCC1=O` [medazomide], the percent effect stood at 1.63%. As for `CN(C)c1cc(NC(=O)CNC(C)(C)C)c(O)c2c1C[C@H]1C[C@H]3[C@H](N(C)C)C(=O)C(C(N)=O)=C(O)[C@@]3(O)C(=O)C1=C2O` [tigecycline], the figure is 3.47%; as for `CO/N=C(\C(=O)N[C@@H]1C(=O)N2C(C(=O)O)=C(COC(C)=O)CS[C@H]12)c1csc(N)n1` [Cefotaxime Acid], -5.62%. As for `CONC(=O)Nc1ccc(-c2sc3c(c2CN(C)Cc2ccccc2)c(=O)n(-c2ccccc2)c(=O)n3Cc2c(F)cccc2F)cc1` [sufugolix], the figure is -2.73%. As for `CC(C)NNC(=O)COc1ccc(Cl)cc1` [iproclozide], the figure is -18.8%; as for `Cc1ccc(=O)n(-c2ccccc2)c1` [pirfenidone], -0.706%. Take `NS(=O)(=O)c1cc(C(=O)NN2C[C@@H]3[C@H]4CC[C@H](C4)[C@@H]3C2)ccc1Cl` [tripamide]: the percent effect was determined as 0.129%. As for `CC(C)c1c(C(=O)Nc2ccccc2)c(-c2ccccc2)c(-c2ccc(F)cc2)n1CC[C@@H](O)C[C@@H](O)CC(=O)O`, the figure is -1.29%. As for `NC(=O)CC[C@@H]1NC(=O)[C@H](Cc2ccccc2)NC(=O)[C@H](Cc2ccc(O)cc2)NC(=O)[C@@H](N)CSSC[C@@H](C(=O)N2CCC[C@H]2C(=O)N[C@@H](CCCN=C(N)N)C(=O)NCC(N)=O)NC(=O)[C@H](CC(N)=O)NC1=O` [argipressin], the figure is -0.419%. The result for `Cc1cccc(/C=N/N2CCN(C(c3ccccc3)c3ccccc3)CC2)n1` [ropizine] reads -4.56%; that for `CCn1cc(C(=O)O)c(=O)c2cc(F)c(N3CCNC(C)C3)c(F)c21` (stereo not drawn) [lomefloxacin], -2.79% and 2.02%; that for `CC(=O)Oc1cc2c(s1)CCN(C(C(=O)C1CC1)c1ccccc1F)C2` (stereo not drawn) [prasugrel], -2.06%. As to `Cc1[nH]c(C)c(Cl)c(=O)c1Cl`, the percent effect was found to be 0.4%. As for `CC(=O)Nc1ccc(O)cc1` [paracetamol], the figure is -8.91%. The result for `NC(=O)OCC(COC(N)=O)c1ccccc1` [felbamate] reads 3.81%; that for `CCCCOc1ccc(C(=O)CCN2CCCCC2)cc1` [dyclonine], -0.496%. As to `COCCCOc1cc(C[C@@H](C[C@H](N)[C@@H](O)C[C@H](C(=O)NCC(C)(C)C(N)=O)C(C)C)C(C)C)ccc1OC`, the percent effect came out at 1.95%.

Consider `Nc1ncnc2nc[nH]c12` [Leuco-4], for which the percent effect was -1.01%. As for `CC(=O)Nc1ccc(S(=O)(=O)c2ccc(NC(C)=O)cc2)cc1` [acedapsone], the figure is 3.41%; as for `CC[C@]12CN3CCc4c([nH]c5ccccc45)[C@@](C(=O)OC)(c4cc5c(cc4OC)N(C=O)[C@H]4[C@@](O)(C(=O)OC)[C@H](OC(C)=O)[C@]6(CC)C=CCN7CC[C@]54[C@@H]76)C[C@@H](C3)[C@H]1O2` [vinformide], 1.56%.
